From PubChem BioAssay AID1487 (National Center for Advancing Translational Sciences (NCATS), 2009)
Some of the results follow. These are further read-outs of the screen, such as a control signal, another cell line or another target. No call is given for them. Compounds called inactive in the main read-out are mostly missing here. The note in brackets gives the kind of curve behind each potency; many fits are weak.

Assay: qHTS Assay for Modulators of Lamin A Splicing
Details: HeLa LMNA splicing GFP/RFP minigene ratio, 48 h
Outline: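 Read-out is the ratio of GFP to DsRed2 object intensity, acquired by 488 nm laser-scanning cytometry on HeLa lamin A-EGFP minigene reporter cells. Compound incubation 48 hrs at 37 °C in Opti-MEM with 2% FBS; DMSO 0.5% final.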

[1] = measured here: GFP splicing reporter channel
[2] = measured here: RFP viability control channel

Row | Compound | AC50 [1] | AC50 [2]
1 | CCOc1ccccc1N(CC)C(=O)Nc1cn(C)c(=O)c2ccccc12 | 35.5 µM [rising, partial curve, poor fit] | 35.5 µM [rising, partial curve, poor fit]
2 | O=C(CN(c1cccc(C(F)(F)F)c1)S(=O)(=O)c1ccc(Cl)c([N+](=O)[O-])c1)NCc1ccccc1 | 35.5 µM [falling, single point] | 31.6 µM [falling, single point]
3 | O=C(Nc1nc2ccccc2s1)C1c2ccccc2Oc2ccccc21 |  | 22.4 µM [rising, single point]
4 | CN(C)S(=O)(=O)c1ccc(NC=O)cc1 | 35.5 µM [rising, partial curve, poor fit] | 0.0501 µM [rising, full curve]
5 | Oc1cc2c(cc1O)CN(C(=S)NCCc1ccc(Cl)cc1)CCC2 | 14.1 µM [falling, single point] | 11.2 µM [falling, partial curve]
6 | O=C(Nc1ccccn1)C1CCN(S(=O)(=O)c2cccs2)CC1 |  | 35.5 µM [rising, single point]
7 | CC(=O)/C=C1/C(=O)Nc2ccccc21 |  | 35.5 µM [rising, single point]
8 | CNC(=S)N/N=C1\C(=O)c2cccc3cccc1c23 | 17.8 µM [falling, single point] | 
9 | CC1CCN(S(=O)(=O)c2ccc3c(c2)c(=O)c(C(=O)NCc2ccccc2Cl)cn3C)CC1 | 1.12 µM [falling, full curve, poor fit] | 0.891 µM [falling, full curve]
10 | CCN(CC1COc2ccccc2O1)C(=S)Nc1ccc(F)cc1 (stereo not given) | 10 µM [rising, partial curve, poor fit] | 12.6 µM [rising, partial curve]
11 | CCCCC(=O)NC(c1cccs1)c1cc(Cl)c2cccnc2c1O (stereo not given) | 2.82 µM [falling, single point] | 3.55 µM [falling, partial curve]
12 | COc1ccc(C2=NN(c3nc4ccccc4s3)C(=O)C2)cc1 | 22.4 µM [rising, partial curve] | 14.1 µM [rising, single point]
13 | Cc1ccc(C(=O)CSC2=C(C#N)C(c3ccco3)C3=C(CC(C)(C)CC3=O)N2)cc1 (stereo not given) | 14.1 µM [rising, single point] | 35.5 µM [rising, single point]
14 | C/C(=N\NC(=O)C(N)=O)c1ccc(NC(=O)c2cccs2)cc1 |  | 0.00501 µM [falling, full curve, poor fit]
15 | Cc1cccc(S(=O)(=O)Nc2cccc(-c3cn4ccsc4n3)c2)c1 | 8.91 µM [rising, partial curve, poor fit] | 14.1 µM [rising, partial curve]
16 | CCc1ccc(OCC(=O)N(Cc2cccs2)c2ccc(Cl)cc2)cc1 |  | 35.5 µM [rising, single point]
17 | Cc1ccsc1/C=N/NC(=O)c1cccc(S(=O)(=O)Nc2ccccc2Cl)c1 | 6.31 µM [falling, single point] | 
18 | Cc1cc(OCCOCCN(C)CCO)cc(C)c1Cl | 2.82 µM [rising, partial curve] | 1.26 µM [rising, full curve, poor fit]
19 | CCOC(=O)c1cc(CC)sc1/N=C/c1c(O)ccc2ccccc12 |  | 12.6 µM [rising, partial curve]
20 | O=C(Cn1ccc(C(F)(F)F)n1)N/N=C/c1ccc(N2CCOCC2)cc1 | 0.0112 µM [rising, partial curve, poor fit] | 
21 | CN1CC(c2ccc(Cl)c(Cl)c2)[C@@]2(COc3ccccc3C2=O)[C@@]12C(=O)Nc1ccccc12 (stereo not given in full) |  | 35.5 µM [rising, single point]
22 | c1ccc(CSc2ncnc3c2cnn3Cc2ccccc2)cc1 |  | 20 µM [rising, single point]
23 | COc1ccc(NC(=S)NNC(=O)CCn2cc([N+](=O)[O-])cn2)cc1 |  | 0.00501 µM [rising, full curve]
24 | CC1CCc2sc(C(=O)OCC(=O)NCc3ccccc3)cc2C1 (stereo not given) |  | 17.8 µM [rising, single point]
25 | Cc1[nH]c2ccccc2c1-c1nc2ccccc2[nH]1 |  | 12.6 µM [rising, partial curve]
26 | CCOc1cc(C(=O)Nc2cc(C)ccc2OC)ccc1OCC(=O)N1CCCCC1 | 10 µM [rising, partial curve, poor fit] | 
27 | CCOC(=O)N1CCC(n2c(SCC(=O)NCc3ccco3)nc3ccsc3c2=O)CC1 |  | 11.2 µM [rising, single point]
28 | Cc1ccc(NC(=O)CSc2nc3ccccc3c3nc(CCn4cncc4C)nn23)cc1F | 3.16 µM [falling, partial curve] | 25.1 µM [falling, partial curve, poor fit]

Pulled one by one from above:
Row | Compound | AC50 [1] | AC50 [2]
17 | Cc1ccsc1/C=N/NC(=O)c1cccc(S(=O)(=O)Nc2ccccc2Cl)c1 | 6.31 µM [falling, single point] | 
14 | C/C(=N\NC(=O)C(N)=O)c1ccc(NC(=O)c2cccs2)cc1 |  | 0.00501 µM [falling, full curve, poor fit]
12 | COc1ccc(C2=NN(c3nc4ccccc4s3)C(=O)C2)cc1 | 22.4 µM [rising, partial curve] | 14.1 µM [rising, single point]
6 | O=C(Nc1ccccn1)C1CCN(S(=O)(=O)c2cccs2)CC1 |  | 35.5 µM [rising, single point]
23 | COc1ccc(NC(=S)NNC(=O)CCn2cc([N+](=O)[O-])cn2)cc1 |  | 0.00501 µM [rising, full curve]

Following part.

Row | Compound | AC50 [1] | AC50 [2]
29 | CCOc1cccc2sc(N(Cc3cccnc3)C(=O)C3CCCCC3)nc12 |  | 35.5 µM [rising, single point]
30 | O=C1C2CCCN2C(c2ccccc2F)N1c1ccc(Cl)cc1 (stereo not given) | 35.5 µM [falling, single point] | 
31 | COc1ccc(CN(C2CCCC2)S(=O)(=O)c2ccc(-n3cnnn3)cc2)cc1OC | 31.6 µM [rising, single point] | 35.5 µM [rising, single point]
32 | Cc1ccc(C2=NCCNC2=O)c(C)c1 |  | 35.5 µM [falling, partial curve, poor fit]
33 | O=C1c2cccnc2Oc2ccc(Cl)cc2N1Cc1ccc(F)cc1 |  | 0.224 µM [rising, full curve, poor fit]
34 | Cc1occc(=O)c1OC(=O)Nc1ccc(Cl)c(Cl)c1 | 17.8 µM [rising, single point] | 28.2 µM [rising, single point]
35 | O=S(=O)(Cc1noc(-c2ccc(Cl)cc2)n1)Cc1ccco1 |  | 6.31 µM [rising, single point]
36 | CCc1ccc(OCC(=O)N/N=C/c2ccc(OS(=O)(=O)c3ccc(C)cc3)c(OC)c2)cc1 |  | 11.2 µM [rising, partial curve, poor fit]
37 | COc1ccc(C(=O)/C=C/c2ccccc2C(F)(F)F)cc1 | 35.5 µM [falling, single point] | 35.5 µM [falling, single point]
38 | CCCS(=O)(=O)c1ncc(Cl)c(C(=O)N2CCN(c3ccc(OC)cc3)CC2)n1 | 5.62 µM [falling, partial curve] | 3.98 µM [falling, full curve, poor fit]
39 | COc1ccc(CCn2nnnc2C(C(C)C)N2CCN(c3ncccn3)CC2)cc1OC (stereo not given) |  | 5.62 µM [rising, single point]
40 | Cc1ccc(C(=O)OCC(=O)c2c(N)n(C)c(=O)n(C)c2=O)cc1S(=O)(=O)N1CCCCC1 | 3.98 µM [rising, partial curve] | 14.1 µM [rising, partial curve]
41 | CC1CCN(c2ccc(NC(=O)c3cccc(Cl)c3)cc2C(=O)O)CC1 |  | 7.08 µM [falling, partial curve]
42 | O=S(=O)(Nn1cnnc1)c1ccc2ccccc2c1 |  | 0.112 µM [falling, full curve, poor fit]
43 | CCOC(=O)c1c(NC(=O)c2cccs2)sc2c1CC(C)(C)OC2 |  | 17.8 µM [rising, single point]
44 | COc1ccccc1Oc1ccc(S(=O)(=O)NCc2ccccn2)cc1 | 3.16 µM [rising, full curve] | 7.94 µM [rising, partial curve]
45 | CC(=O)Nc1ccc(NC(=O)c2ccccc2CCc2ccccc2)cc1 |  | 0.251 µM [rising, full curve, poor fit]
46 | COc1ccccc1NC(=O)c1ccc(Cl)c(S(=O)(=O)N2CCOCC2)c1 |  | 35.5 µM [rising, single point]
47 | COc1ccc(NC(=O)c2c(NC(=O)CNCc3ccco3)sc3c2CCC3)cc1 |  | 7.94 µM [rising, partial curve, poor fit]
48 | COc1ccc(OCC(=O)NCC2(N3CCN(C)CC3)CCCCC2)cc1 | 1.41 µM [falling, full curve] | 2.82 µM [falling, partial curve]
49 | CN(C(=O)COC(=O)C1c2ccccc2Oc2ccccc21)C1CCS(=O)(=O)C1 (stereo not given) |  | 12.6 µM [falling, partial curve, poor fit]
50 | Cc1ccc(O)c(/C=N/NC(=O)C2=NNC(c3ccccc3)(c3ccccc3)C2)c1 |  | 14.1 µM [rising, single point]
51 | COC(=O)N/N=C/C1=C[N+](=O)c2ccccc2[N+]1=O | 14.1 µM [rising, partial curve, poor fit] | 2.82 µM [rising, full curve, poor fit]
52 | Cn1nnnc1SCC(=O)N1CCN(c2ccc(Cl)cc2)CC1 |  | 15.8 µM [rising, single point]
53 | O=C(c1nc(-c2ccc(Cl)cc2)n2c1CCCCC2)N1CCN(c2ccccc2F)CC1 |  | 0.0501 µM [rising, full curve, poor fit]
54 | COc1ccccc1NC(=O)N(Cc1ccco1)Cc1cc2cc(C)cc(C)c2[nH]c1=O |  | 1.58 µM [rising, partial curve, poor fit]
55 | COc1ccc(S(=O)(=O)Nc2cccc(-c3ccc(N4CCOCC4)nn3)c2)cc1F | 6.31 µM [falling, partial curve] | 
